The target in this assay is CD64 (Fc gamma receptor I) (human, UniProt P12314 16-374). The assay can be described thus: flow cytometry, 1 µg protein on 4*10^5 CD64+ HL60 cells, anti-His Alexa 488 detection. In general terms: A flow cytometer gives signals particle by particle.

Protein sequences, listed by entry. Tags and fused reporters are not part of them. Lines headed by an entry give the natural chain unless they say otherwise; changes in a name come on top.
UniProt P12314: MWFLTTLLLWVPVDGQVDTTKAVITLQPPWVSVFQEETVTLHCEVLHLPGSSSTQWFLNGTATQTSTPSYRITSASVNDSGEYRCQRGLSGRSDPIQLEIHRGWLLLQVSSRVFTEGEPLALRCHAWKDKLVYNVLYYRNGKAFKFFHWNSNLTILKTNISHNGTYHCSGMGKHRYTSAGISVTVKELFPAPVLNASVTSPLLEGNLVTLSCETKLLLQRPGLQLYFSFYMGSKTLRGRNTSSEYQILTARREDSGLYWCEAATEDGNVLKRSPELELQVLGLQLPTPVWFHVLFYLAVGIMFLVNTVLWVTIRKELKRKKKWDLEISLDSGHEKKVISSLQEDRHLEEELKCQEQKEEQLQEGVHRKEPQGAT

No constants are given. Whether binding was seen depends on the method and setting. Binding can be weak; no strength is given.

B1: Gm-H22(scFv) (other)
chain: IIGGREVIPHSRPYMASLQRNGSHLCGGVLVHPKWVLTAAHCLAQRMAQLRLVLGLHTLDSPGLTFHIKAAIQHPRYKPVPALENDLALLQLDGKVKPSRTIRPLALPSKRQVVAAGTRCSMAGWGLTHQGGRLSRVLRELDLQVLDTRMCNNSRFWNGSLSPSMVCLAADSKDQAPCKGDSGGPLVCGKGRVLAGVLSFSSRVCTDIFKPPVATAVAPYVSWIRKVTGRSAAEHEGDAAQPAMAQVQLVESGGGVVQPGRSLRLSCSSSGFIFSDNYMYWVRQAPGKGLEWVATISDGGSYTYYPDSVKGRFTISRDNSKNTLFLQMDSLRPEDTGVYFCARGYYRYEGAMDYWGQGTPVTVSSGGGGSGGGGSGGGGSDIQLTQSPSSLSASVGDRVTITCKSSQSVLYSSNQKNYLAWYQQKPGKAPKLLIYWASTRESGVPSRFSGSGSGTDFTFTISSLQPEDIATYYCHQYLSSWTFGQGTKLEIK
Take B1: the binding result is given as “binds”.

The values are drawn from patent US20150291693A1 (FRAUNHOFER GESELLSCHAFT ZUR FORDERUNG DER ANGEWANDTEN …, published 2015).
